This note sets out measurements from the odorant receptor screen of Mainland et al. (2015).

Chains of the proteins cited; added tags and fusions are not shown. Chains listed by the source or under a name are the forms on record and can include a tag or linker.
OR4F14 A297T, as listed by the source, stated change not applied: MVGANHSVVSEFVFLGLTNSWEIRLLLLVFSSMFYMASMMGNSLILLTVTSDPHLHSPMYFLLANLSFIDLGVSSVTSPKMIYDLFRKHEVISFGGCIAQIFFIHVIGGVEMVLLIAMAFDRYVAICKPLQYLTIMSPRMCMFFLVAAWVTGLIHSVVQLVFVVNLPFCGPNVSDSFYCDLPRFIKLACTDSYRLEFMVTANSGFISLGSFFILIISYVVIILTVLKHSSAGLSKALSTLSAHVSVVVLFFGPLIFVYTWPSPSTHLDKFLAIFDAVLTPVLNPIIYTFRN

SMILES strings stand for the structures. Where “and” joins values, the source holds several entries; their conditions need not be identical. Equal values may be shown once. Some of the results follow. Each value is one well over the wells without odorant, computed here; the data are noisy.

The first test relates to OR4D1 R54Q clone 1467. The test can be described thus: odorant receptor activation (CRE luciferase / Renilla) (fold of no-odor wells); higher = more activation. Conditions: 100 µM.
Regarding `CCCCOC(C)=O` [butyl acetate], the odorant receptor activation was 1.09.

Regarding `CCOc1cc(C=O)ccc1O` [ethyl vanillin], the odorant receptor activation was 0.848 and 1.28 and 1.33.

Compound `CCC(C)=O` [2-butanone] had an odorant receptor activation of 0.939.

Take `CS` [methanethiol]: the odorant receptor activation came to 1.3.

The next test has as its system OR4D1 clone 1316. The description is as above. Conditions: 100 µM.
As for `CCCCOC(C)=O` [butyl acetate], the odorant receptor activation amounted to 0.86.

`CCOc1cc(C=O)ccc1O` [ethyl vanillin]: the odorant receptor activation was 1.11 and 1.24.

On to `CCC(C)=O` [2-butanone], for which the odorant receptor activation came to 1.08.

Consider `CS` [methanethiol], for which the odorant receptor activation is 0.697.

For another test, the system named is OR4D10 clone 1174. The test is described as above. To be noted: 100 µM.
For `CCCCOC(C)=O` [butyl acetate], the odorant receptor activation was 1.01.

`CCOc1cc(C=O)ccc1O` [ethyl vanillin]: the odorant receptor activation was 1.76 and 1.03.

Compound `CCC(C)=O` [2-butanone] showed an odorant receptor activation of 0.765.

Regarding `CS` [methanethiol], the odorant receptor activation was 0.797.

In another test the test system is OR4D11 clone 1243. The description is as above. To be noted: 100 µM.
`CCCCOC(C)=O` [butyl acetate] showed an odorant receptor activation of 0.895.

For `CCOc1cc(C=O)ccc1O` [ethyl vanillin], the odorant receptor activation was 1.11 and 1.1.

In the case of `CCC(C)=O` [2-butanone], the odorant receptor activation is 1.42.

In turn, `CS` [methanethiol] had an odorant receptor activation of 0.802.

For the next test, the system named is OR4D2 C97S/L187F clone 1285. The description is as above. To be noted: 100 µM.
`CCCCOC(C)=O` [butyl acetate] had an odorant receptor activation of 0.89.

`CCC(C)=O` [2-butanone] registered an odorant receptor activation of 1.37.

Compound `CS` [methanethiol] yielded an odorant receptor activation of 0.937.

A further test has as its system OR4D5 clone 1122. The description is as above. To be noted: 100 µM.
In the case of `CCCCOC(C)=O` [butyl acetate], the odorant receptor activation was 0.976.

As for `CCOc1cc(C=O)ccc1O` [ethyl vanillin], the odorant receptor activation was determined as 0.962.

With `CCC(C)=O` [2-butanone], the odorant receptor activation stood at 0.812.

`CS` [methanethiol] gave an odorant receptor activation of 0.76.

The next test concerns OR4D6 D96G clone 1225. The test is described as above. Conditions: 100 µM.
Turning to `CCCCOC(C)=O` [butyl acetate], the odorant receptor activation was 0.868.

As for `CCOc1cc(C=O)ccc1O` [ethyl vanillin], the odorant receptor activation was 1.16 and 1.05.

With `CCC(C)=O` [2-butanone], the odorant receptor activation was determined as 0.599.

Compound `CS` [methanethiol] gave an odorant receptor activation of 0.904.

A further test concerns OR4D9 clone 1217. The description is as above. To be noted: 100 µM.
Consider `CCCCOC(C)=O` [butyl acetate], for which the odorant receptor activation is 0.958.

With `CCOc1cc(C=O)ccc1O` [ethyl vanillin], the odorant receptor activation was 1.35 and 1.05.

Consider `CCC(C)=O` [2-butanone], for which the odorant receptor activation is 0.813.

For `CS` [methanethiol], the odorant receptor activation turned out to be 1.02.

A further test deals with OR4E2 V118M/Q234R clone 1274. Described as above. Conditions: 100 µM.
Compound `CCCCOC(C)=O` [butyl acetate] returned an odorant receptor activation of 0.923.

Consider `CCOc1cc(C=O)ccc1O` [ethyl vanillin], for which the odorant receptor activation is 1.13 and 0.98.

On to `CCC(C)=O` [2-butanone], for which the odorant receptor activation worked out at 0.922.

As to `CS` [methanethiol], the odorant receptor activation was found to be 0.885.

The next test concerns OR4F14 A297T clone 1059. The description is as above. Conditions: 100 µM.
The compound `CCCCOC(C)=O` [butyl acetate] registered an odorant receptor activation of 1.01.

`CCOc1cc(C=O)ccc1O` [ethyl vanillin]: the odorant receptor activation is 1.33 and 0.967.

`CCC(C)=O` [2-butanone] displayed an odorant receptor activation of 4.06.

The compound `CS` [methanethiol] gave an odorant receptor activation of 1.02.

A further test relates to OR4F15 clone 1074. The description is as above. Conditions: 100 µM.
`CCCCOC(C)=O` [butyl acetate] came in with an odorant receptor activation of 1.01.

Regarding `CCOc1cc(C=O)ccc1O` [ethyl vanillin], the odorant receptor activation is 1.49 and 1.03.

For the compound `CCC(C)=O` [2-butanone], the odorant receptor activation worked out at 2.86.

Compound `CS` [methanethiol] returned an odorant receptor activation of 0.964.

In the next test the test system is OR4F15 clone 1434. The description is as above. To be noted: 100 µM.
`CCCCOC(C)=O` [butyl acetate] came in with an odorant receptor activation of 0.196.

For the compound `CCOc1cc(C=O)ccc1O` [ethyl vanillin], the odorant receptor activation is 1.07 and 1.23.

The compound `CCC(C)=O` [2-butanone] displayed an odorant receptor activation of 1.49.

For `CS` [methanethiol], the odorant receptor activation stood at 0.896.

The next test relates to OR4F16 clone 1060. The test is described as above. To be noted: 100 µM.
`CCCCOC(C)=O` [butyl acetate]: the odorant receptor activation turned out to be 0.939.

As to `CCOc1cc(C=O)ccc1O` [ethyl vanillin], the odorant receptor activation is 0.755 and 0.861.

For `CCC(C)=O` [2-butanone], the odorant receptor activation is 2.82.

For the compound `CS` [methanethiol], the odorant receptor activation is 1.22.

The next test relates to OR4F17 clone 1161. The test is described as above. To be noted: 100 µM.
For `CCCCOC(C)=O` [butyl acetate], the odorant receptor activation came to 1.19.

Turning to `CCOc1cc(C=O)ccc1O` [ethyl vanillin], the odorant receptor activation is 1.98 and 0.938.

Turning to `CCC(C)=O` [2-butanone], the odorant receptor activation came out at 0.929.

Consider `CS` [methanethiol], for which the odorant receptor activation was determined as 1.15.

A further test concerns OR4F21 clone 1580. Described as above. Conditions: 100 µM.
In turn, `CCCCOC(C)=O` [butyl acetate] displayed an odorant receptor activation of 1.5.

`CCOc1cc(C=O)ccc1O` [ethyl vanillin] came in with an odorant receptor activation of 0.737.

The compound `CCC(C)=O` [2-butanone] showed an odorant receptor activation of 0.789.

`CS` [methanethiol] registered an odorant receptor activation of 0.496.

The subject of the next test is OR4F4 clone 1556. The description is as above. Conditions: 100 µM.
In turn, `CCCCOC(C)=O` [butyl acetate] gave an odorant receptor activation of 1.03.

Consider `CCOc1cc(C=O)ccc1O` [ethyl vanillin], for which the odorant receptor activation is 0.808.

As to `CCC(C)=O` [2-butanone], the odorant receptor activation stood at 1.43.

In turn, `CS` [methanethiol] yielded an odorant receptor activation of 0.993.

A further test relates to OR4F5 clone 1557. The description is as above. To be noted: 100 µM.
For `CCCCOC(C)=O` [butyl acetate], the odorant receptor activation was determined as 0.849.

Take `CCOc1cc(C=O)ccc1O` [ethyl vanillin]: the odorant receptor activation is 1.05.

In the case of `CCC(C)=O` [2-butanone], the odorant receptor activation came to 1.55.

As to `CS` [methanethiol], the odorant receptor activation was found to be 1.12.

The test system of the next test is OR4F6 clone 1058. The description is as above. Conditions: 100 µM.
In the case of `CCCCOC(C)=O` [butyl acetate], the odorant receptor activation stood at 1.27.

`CCOc1cc(C=O)ccc1O` [ethyl vanillin]: the odorant receptor activation was 1.03 and 1.2.

As for `CCC(C)=O` [2-butanone], the odorant receptor activation is 3.55.

Consider `CS` [methanethiol], for which the odorant receptor activation worked out at 1.12.

Another test relates to OR4F6 clone 1537. Described as above. To be noted: 100 µM.
For `CCCCOC(C)=O` [butyl acetate], the odorant receptor activation amounted to 0.944.

In the case of `CCOc1cc(C=O)ccc1O` [ethyl vanillin], the odorant receptor activation is 1.16 and 1.65 and 1.28.

In turn, `CCC(C)=O` [2-butanone] had an odorant receptor activation of 1.06.

`CS` [methanethiol] displayed an odorant receptor activation of 0.84.

The test system of another test is OR4K1 R89H clone 1269. The description is as above. Conditions: 100 µM.
With `CCCCOC(C)=O` [butyl acetate], the odorant receptor activation amounted to 0.995.

Regarding `CCOc1cc(C=O)ccc1O` [ethyl vanillin], the odorant receptor activation was 1.07 and 1.05.

For `CCC(C)=O` [2-butanone], the odorant receptor activation worked out at 1.34.

For the compound `CS` [methanethiol], the odorant receptor activation stood at 0.753.
